The other results are listed elsewhere or left out.
Columns and labels:
Assay in all cases: log2 fold change, soluble protein after heating vs DMSO (PISA); higher = thermal stabilisation; K562 cells, 10 uM, 30 min; active = over 0.2 and 3.5 SD of the protein, either way, in both replicates (recomputed)
mubritinib = compound: FC(F)(F)c1ccc(/C=C/c2nc(COc3ccc(CCCCn4ccnn4)cc3)co2)cc1 [mubritinib]
Outline: (§1)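 Values are thermal stability changes relative to control samples and are taken from duplicates. They are stated as log2 fold changes. Before quantification by TMTpro 16plex LC-MS/MS with equalised channel sums, K562 cells at 2×10^6 cells/mL were treated with 10 μM compound for 30 min, heated in aliquots for 3 min across 48°C-58°C, pooled, extracted in PBS with 0.5% NP-40 at 4°C, and centrifuged at 21,000xg for 90 min to give the soluble supernatant.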

Protein sequences, listed by entry. Tags and fused reporters are not part of them. Lines headed by an entry give the natural chain unless they say otherwise; changes in a name come on top.
UniProt P49842: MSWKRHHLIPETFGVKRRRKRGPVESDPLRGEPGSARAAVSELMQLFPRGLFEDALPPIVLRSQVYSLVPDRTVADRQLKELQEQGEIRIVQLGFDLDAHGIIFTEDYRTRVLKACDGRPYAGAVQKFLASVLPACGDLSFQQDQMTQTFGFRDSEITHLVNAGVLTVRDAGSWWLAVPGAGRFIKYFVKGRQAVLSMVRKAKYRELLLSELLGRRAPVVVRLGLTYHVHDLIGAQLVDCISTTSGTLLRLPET
UniProt Q9NSC7: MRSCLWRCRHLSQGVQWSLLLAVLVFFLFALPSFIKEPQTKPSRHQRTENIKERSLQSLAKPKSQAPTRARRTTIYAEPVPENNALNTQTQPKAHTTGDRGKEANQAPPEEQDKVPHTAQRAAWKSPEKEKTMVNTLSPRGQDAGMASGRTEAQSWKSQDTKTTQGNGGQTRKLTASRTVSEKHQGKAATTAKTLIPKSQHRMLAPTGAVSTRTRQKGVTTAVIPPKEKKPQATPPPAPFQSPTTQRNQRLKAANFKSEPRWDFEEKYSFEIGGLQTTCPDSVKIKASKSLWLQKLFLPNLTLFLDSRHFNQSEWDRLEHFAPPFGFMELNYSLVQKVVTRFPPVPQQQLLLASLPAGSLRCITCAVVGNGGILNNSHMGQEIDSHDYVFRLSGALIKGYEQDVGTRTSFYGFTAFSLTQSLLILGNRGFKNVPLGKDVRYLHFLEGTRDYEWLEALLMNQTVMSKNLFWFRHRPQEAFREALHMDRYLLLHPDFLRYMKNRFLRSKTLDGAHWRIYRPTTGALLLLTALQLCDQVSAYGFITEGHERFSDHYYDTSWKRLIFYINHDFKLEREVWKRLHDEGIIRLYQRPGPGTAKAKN
UniProt Q9Y365: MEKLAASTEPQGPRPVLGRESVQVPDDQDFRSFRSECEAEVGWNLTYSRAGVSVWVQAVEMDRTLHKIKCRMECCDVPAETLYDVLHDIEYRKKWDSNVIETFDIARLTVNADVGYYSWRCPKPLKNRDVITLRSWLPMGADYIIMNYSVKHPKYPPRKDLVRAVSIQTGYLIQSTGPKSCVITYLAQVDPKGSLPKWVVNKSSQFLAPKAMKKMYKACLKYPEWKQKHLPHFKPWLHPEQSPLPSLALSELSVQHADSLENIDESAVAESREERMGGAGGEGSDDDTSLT
UniProt P52630: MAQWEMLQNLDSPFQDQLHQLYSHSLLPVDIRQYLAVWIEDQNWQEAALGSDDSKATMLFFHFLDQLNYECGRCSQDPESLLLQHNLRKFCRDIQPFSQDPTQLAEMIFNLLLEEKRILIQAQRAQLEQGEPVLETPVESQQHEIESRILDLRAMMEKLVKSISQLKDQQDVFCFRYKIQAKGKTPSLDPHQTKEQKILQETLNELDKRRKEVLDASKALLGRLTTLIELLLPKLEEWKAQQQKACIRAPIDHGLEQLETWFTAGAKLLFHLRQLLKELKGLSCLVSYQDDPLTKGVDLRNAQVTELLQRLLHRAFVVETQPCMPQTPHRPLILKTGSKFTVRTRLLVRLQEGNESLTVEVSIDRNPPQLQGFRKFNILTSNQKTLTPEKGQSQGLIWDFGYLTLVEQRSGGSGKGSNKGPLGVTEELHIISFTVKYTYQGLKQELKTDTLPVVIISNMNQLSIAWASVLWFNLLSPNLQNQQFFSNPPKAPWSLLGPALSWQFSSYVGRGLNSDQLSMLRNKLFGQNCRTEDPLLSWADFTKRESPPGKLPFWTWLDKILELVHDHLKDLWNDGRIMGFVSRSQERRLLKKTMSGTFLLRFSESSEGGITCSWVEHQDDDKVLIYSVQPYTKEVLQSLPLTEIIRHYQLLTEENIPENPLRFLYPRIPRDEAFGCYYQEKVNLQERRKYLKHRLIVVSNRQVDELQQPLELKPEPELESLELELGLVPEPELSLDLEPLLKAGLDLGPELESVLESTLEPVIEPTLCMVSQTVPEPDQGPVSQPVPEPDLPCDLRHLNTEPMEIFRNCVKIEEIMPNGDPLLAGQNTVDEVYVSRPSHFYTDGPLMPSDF
UniProt Q9NUL3: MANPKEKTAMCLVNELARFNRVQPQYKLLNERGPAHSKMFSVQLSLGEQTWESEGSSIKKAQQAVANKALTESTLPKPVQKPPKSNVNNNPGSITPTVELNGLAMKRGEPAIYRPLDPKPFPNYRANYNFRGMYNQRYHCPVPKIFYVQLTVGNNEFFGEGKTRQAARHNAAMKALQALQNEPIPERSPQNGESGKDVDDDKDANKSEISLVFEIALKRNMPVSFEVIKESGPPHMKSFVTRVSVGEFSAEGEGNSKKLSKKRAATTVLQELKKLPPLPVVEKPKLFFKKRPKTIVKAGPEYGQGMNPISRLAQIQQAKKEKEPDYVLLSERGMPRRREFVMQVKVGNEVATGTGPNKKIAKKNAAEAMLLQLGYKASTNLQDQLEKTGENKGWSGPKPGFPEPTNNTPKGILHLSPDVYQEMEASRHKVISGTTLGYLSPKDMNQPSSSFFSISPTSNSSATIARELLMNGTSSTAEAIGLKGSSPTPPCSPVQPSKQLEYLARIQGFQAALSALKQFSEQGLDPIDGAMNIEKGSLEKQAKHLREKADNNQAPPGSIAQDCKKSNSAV
UniProt Q9NRA0: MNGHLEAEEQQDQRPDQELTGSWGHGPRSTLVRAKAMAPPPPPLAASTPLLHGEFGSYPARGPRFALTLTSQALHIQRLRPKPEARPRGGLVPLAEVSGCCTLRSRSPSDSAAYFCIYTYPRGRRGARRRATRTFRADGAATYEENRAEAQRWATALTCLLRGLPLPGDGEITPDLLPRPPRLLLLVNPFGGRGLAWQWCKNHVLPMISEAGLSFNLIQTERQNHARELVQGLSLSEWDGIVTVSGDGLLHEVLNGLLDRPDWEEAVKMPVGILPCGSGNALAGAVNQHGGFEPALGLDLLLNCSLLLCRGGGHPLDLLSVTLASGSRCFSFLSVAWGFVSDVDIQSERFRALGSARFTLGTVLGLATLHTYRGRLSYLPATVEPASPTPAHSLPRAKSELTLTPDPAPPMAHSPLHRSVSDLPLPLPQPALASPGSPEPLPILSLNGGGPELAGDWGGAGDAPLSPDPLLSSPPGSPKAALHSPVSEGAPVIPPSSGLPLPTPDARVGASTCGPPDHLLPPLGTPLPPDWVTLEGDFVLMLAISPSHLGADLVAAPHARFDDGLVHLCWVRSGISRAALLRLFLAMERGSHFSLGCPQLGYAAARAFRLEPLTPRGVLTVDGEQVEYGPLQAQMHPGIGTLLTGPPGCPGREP
UniProt Q7Z699: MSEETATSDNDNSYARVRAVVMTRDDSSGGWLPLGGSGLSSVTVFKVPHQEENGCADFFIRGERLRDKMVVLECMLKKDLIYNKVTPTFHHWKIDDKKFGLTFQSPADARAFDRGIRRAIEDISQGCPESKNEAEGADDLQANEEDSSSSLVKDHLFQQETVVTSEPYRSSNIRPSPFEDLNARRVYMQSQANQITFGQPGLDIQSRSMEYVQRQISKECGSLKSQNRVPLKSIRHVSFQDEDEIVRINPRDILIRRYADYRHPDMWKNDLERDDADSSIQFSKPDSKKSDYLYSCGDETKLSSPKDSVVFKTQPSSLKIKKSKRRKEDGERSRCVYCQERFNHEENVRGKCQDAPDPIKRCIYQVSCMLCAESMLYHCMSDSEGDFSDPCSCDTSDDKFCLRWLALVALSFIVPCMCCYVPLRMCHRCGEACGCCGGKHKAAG
UniProt Q9H8P0: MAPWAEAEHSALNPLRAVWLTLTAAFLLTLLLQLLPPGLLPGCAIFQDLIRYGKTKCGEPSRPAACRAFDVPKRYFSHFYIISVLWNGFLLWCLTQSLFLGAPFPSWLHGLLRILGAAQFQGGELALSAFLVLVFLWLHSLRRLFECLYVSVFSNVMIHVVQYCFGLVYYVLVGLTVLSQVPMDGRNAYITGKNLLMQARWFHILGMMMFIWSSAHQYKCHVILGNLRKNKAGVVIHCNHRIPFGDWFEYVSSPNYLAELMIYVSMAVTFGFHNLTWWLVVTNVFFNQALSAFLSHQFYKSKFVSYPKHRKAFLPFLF
UniProt Q9NY15: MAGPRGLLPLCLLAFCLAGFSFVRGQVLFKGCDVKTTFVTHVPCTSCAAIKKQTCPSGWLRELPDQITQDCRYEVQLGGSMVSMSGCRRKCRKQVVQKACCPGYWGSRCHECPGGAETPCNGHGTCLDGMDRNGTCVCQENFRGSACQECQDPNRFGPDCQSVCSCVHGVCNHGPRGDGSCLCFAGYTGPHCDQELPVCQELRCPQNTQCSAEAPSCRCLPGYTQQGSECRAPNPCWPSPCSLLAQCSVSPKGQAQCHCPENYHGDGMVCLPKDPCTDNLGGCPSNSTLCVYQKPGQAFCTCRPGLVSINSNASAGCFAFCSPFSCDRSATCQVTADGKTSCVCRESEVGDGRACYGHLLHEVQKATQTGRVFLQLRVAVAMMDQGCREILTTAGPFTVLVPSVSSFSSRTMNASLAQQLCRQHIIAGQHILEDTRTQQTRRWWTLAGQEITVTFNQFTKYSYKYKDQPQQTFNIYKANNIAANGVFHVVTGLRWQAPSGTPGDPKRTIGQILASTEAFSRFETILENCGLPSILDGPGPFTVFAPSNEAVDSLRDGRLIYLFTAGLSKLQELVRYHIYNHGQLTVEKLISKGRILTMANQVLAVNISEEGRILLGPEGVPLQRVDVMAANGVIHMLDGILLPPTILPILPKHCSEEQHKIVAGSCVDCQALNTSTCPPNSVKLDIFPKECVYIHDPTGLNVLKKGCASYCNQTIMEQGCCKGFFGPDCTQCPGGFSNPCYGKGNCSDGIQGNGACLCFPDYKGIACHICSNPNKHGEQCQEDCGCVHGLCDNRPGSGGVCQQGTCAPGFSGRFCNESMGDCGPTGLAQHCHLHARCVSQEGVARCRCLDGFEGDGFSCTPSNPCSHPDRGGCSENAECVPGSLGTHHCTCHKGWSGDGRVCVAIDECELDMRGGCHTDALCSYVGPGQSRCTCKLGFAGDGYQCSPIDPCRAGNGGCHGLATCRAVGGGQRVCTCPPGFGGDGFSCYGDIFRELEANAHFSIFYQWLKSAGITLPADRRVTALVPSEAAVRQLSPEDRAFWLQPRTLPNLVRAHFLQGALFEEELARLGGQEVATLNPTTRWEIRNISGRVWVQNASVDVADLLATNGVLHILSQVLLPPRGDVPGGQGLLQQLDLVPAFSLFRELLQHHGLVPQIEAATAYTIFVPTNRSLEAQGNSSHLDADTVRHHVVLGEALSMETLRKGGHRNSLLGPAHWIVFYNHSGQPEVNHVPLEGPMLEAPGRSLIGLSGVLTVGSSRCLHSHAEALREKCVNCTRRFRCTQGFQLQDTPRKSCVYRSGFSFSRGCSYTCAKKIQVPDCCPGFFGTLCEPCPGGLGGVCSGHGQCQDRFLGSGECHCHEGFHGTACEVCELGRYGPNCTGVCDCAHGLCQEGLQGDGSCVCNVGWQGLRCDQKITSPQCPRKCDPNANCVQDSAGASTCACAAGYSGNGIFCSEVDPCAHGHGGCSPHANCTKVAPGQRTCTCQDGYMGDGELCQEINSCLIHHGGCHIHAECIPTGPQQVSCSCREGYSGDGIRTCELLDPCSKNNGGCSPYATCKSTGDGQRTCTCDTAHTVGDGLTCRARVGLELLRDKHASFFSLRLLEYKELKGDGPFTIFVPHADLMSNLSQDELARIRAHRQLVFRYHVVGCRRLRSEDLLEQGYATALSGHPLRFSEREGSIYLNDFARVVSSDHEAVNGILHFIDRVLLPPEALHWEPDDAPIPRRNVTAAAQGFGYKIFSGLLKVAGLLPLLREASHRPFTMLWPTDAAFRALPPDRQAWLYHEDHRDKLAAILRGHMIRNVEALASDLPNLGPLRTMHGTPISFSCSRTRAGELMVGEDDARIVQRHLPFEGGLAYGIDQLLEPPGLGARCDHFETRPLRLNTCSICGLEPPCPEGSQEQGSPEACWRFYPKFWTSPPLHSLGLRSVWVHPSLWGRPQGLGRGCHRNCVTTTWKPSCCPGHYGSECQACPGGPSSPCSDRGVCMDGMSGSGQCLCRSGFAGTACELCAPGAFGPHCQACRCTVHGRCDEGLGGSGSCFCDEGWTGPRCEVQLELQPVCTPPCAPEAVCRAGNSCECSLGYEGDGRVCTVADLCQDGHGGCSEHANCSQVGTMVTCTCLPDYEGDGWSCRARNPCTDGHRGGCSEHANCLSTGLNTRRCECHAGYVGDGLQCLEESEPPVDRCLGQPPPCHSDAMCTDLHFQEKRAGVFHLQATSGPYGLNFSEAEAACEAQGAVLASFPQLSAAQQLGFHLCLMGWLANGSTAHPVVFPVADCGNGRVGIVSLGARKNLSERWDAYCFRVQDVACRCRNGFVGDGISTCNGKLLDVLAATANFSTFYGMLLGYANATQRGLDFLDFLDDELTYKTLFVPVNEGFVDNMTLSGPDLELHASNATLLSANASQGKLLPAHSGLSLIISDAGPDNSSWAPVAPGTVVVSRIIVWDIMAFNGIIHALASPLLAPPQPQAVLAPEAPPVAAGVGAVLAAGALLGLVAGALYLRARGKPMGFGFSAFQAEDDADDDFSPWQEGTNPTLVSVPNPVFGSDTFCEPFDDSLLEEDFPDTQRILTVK

[1] = compound: Cn1cc(-c2ccc3nnc(C(F)(F)c4ccc5ncccc5c4)n3n2)cn1
Outline: as §1

[2] = compound: Cc1cccc(CC(=O)N2CCc3c2ccc(-c2cn(C)c4ncnc(N)c24)c3F)n1
Outline: as §1

bafetinib = compound: Cc1ccc(NC(=O)c2ccc(CN3CC[C@H](N(C)C)C3)c(C(F)(F)F)c2)cc1Nc1nccc(-c2cncnc2)n1 [bafetinib]
Outline: as §1

nilotinib = compound: Cc1cn(-c2cc(NC(=O)c3ccc(C)c(Nc4nccc(-c5cccnc5)n4)c3)cc(C(F)(F)F)c2)cn1 [nilotinib]
Outline: as §1

[3] = compound: Cc1nc(Nc2n[nH]c3c2CN(C(=O)N[C@H](CN(C)C)c2ccccc2)C3(C)C)c2sccc2n1
Outline: as §1

dasatinib = compound: Cc1nc(Nc2ncc(C(=O)Nc3c(C)cccc3Cl)s2)cc(N2CCN(CCO)CC2)n1 [dasatinib]
Outline: as §1

[4] = compound: Cc1ncc(-c2ccnc(Nc3ccc(S(C)(=O)=O)cc3)n2)n1C(C)C
Outline: as §1

[5] = compound: Cn1cc(-c2ccc3c(c2)CCN3C(=O)Cc2cccc(C(F)(F)F)c2)c2c(N)ncnc21
Outline: as §1

tipifarnib = compound: Cn1cncc1[C@@](N)(c1ccc(Cl)cc1)c1ccc2c(c1)c(-c1cccc(Cl)c1)cc(=O)n2C [tipifarnib]
Outline: as §1

Measured: log2 fold change

SPPL3 (UniProt Q8TCT6)
inactive: mubritinib 0.083

STK19 (UniProt P49842)
inactive: [1] -0.176

STIP1 (UniProt H0YGI8)
inactive: [2] -0.127

ST6GALNAC1 (UniProt Q9NSC7)
inactive: bafetinib -0.022 | nilotinib 0.083 | [3] -0.065 | dasatinib 0.046 | [4] -0.019 | [5] -0.07 | [1] 0.029 | tipifarnib -0.057 | mubritinib -0.004

STARD10 (UniProt Q9Y365)
inactive: dasatinib -0.261

ST3GAL4 isoform 4 (UniProt Q11206)
inactive: bafetinib 0.081 | nilotinib 0.094 | [3] 0.038 | [4] 0.116 | [5] -0.282

ST3GAL1 (UniProt Q11201)
inactive: dasatinib -0.018 | [5] -0.224 | tipifarnib 0.105

SPIRE2 (UniProt Q8WWL2)
inactive: bafetinib 0.001 | [2] -0.095 | dasatinib 0.141 | [5] 0.476 | [1] -0.193

SRCIN1 (UniProt Q9C0H9)
inactive: bafetinib 0.251 | [2] -0.087 | [1] -0.149

STAT2 (UniProt P52630)
inactive: bafetinib 0.161 | [2] 0.199 | dasatinib -0.025 | [5] -0.403 | [1] -0.235 | mubritinib -0.131

STAU2 (UniProt Q9NUL3)
inactive: bafetinib 0.147 | [2] -0.053 | dasatinib 0.071 | [5] -0.4 | tipifarnib -0.334 | mubritinib -0.095

SPHK2 isoform 5 (UniProt Q9NRA0)
inactive: tipifarnib -0.015

SRGAP1 (UniProt Q7Z6B7)
inactive: bafetinib -0.019 | [2] 0.043 | nilotinib -0.1 | [3] -0.023 | [4] 0.02 | [1] -0.073 | tipifarnib 0.128 | mubritinib -0.252

SPDL1 (UniProt Q96EA4)
inactive: dasatinib -0.129 | [5] 0.075 | [1] 0.131 | tipifarnib 0.233

SSU72 (UniProt Q9NP77)
inactive: bafetinib 0.293 | [2] 0.156 | dasatinib -0.101 | [5] 0.094 | tipifarnib -0.12 | mubritinib -0.143

SPRR1B (UniProt P22528)
inactive: mubritinib -0.422

SPRED1 (UniProt Q7Z699)
inactive: [5] -0.028 | [1] 0.052

SRD5A3 (UniProt Q9H8P0)
inactive: bafetinib -0.304 | [2] 0.198 | nilotinib -0.142 | [3] -0.106 | [4] 0.063 | [1] 0.108 | mubritinib 0.171

SQOR (UniProt Q9Y6N5)
inactive: [2] 0.03 | dasatinib -0.008

SPP2 (UniProt Q13103)
inactive: bafetinib -0.118 | dasatinib 0.126 | [5] 0.014

3 consecutive records already listed, for reference:
STARD10 (UniProt Q9Y365)
inactive: dasatinib -0.261

ST3GAL4 isoform 4 (UniProt Q11206)
inactive: bafetinib 0.081 | nilotinib 0.094 | [3] 0.038 | [4] 0.116 | [5] -0.282

ST3GAL1 (UniProt Q11201)
inactive: dasatinib -0.018 | [5] -0.224 | tipifarnib 0.105

Further results follow:

SS18L1 (UniProt O75177)
inactive: tipifarnib -0.008

SSX1 (UniProt Q16384)
inactive: bafetinib 0.079 | [5] -0.219 | tipifarnib 0.034

SPATS2 (UniProt Q86XZ4)
inactive: [2] -0.167 | dasatinib -0.082 | [5] -0.106

SPRED2 (UniProt Q7Z698)
inactive: [5] 0.034

SRBD1 (UniProt Q8N5C6)
inactive: [2] -0.104

STIM2 isoform 2 (UniProt Q9P246)
inactive: nilotinib -0.065 | [3] 0.042 | [4] -0.077 | tipifarnib 0.162

SPPL2A (UniProt Q8TCT8)
inactive: bafetinib 0.023 | [2] -0.125 | dasatinib 0.087 | [5] -0.058 | [1] -0.043 | tipifarnib 0.13 | mubritinib 0.085

STAR (UniProt P49675)
inactive: [1] 0.011 | mubritinib -0.105

SSR2 (UniProt P43308)
inactive: nilotinib 0.141 | [3] -0.999 | [4] -0.009 | mubritinib -0.1

SPATS2L isoform 3 (UniProt Q9NUQ6)
inactive: dasatinib 0.085 | [5] -0.259

SPINT1 (UniProt O43278)
inactive: [2] 0 | [1] 0.24 | tipifarnib 0.127

SREBF1 isoform 4 (UniProt P36956)
inactive: bafetinib -0.357 | dasatinib -0.043 | mubritinib -0.004

STAB1 (UniProt Q9NY15)
inactive: bafetinib 0.181 | [2] 0.188 | dasatinib -0.164 | [5] -0.192 | [1] 0.088 | tipifarnib 0.131 | mubritinib -0.145

SPRR2B (UniProt P35325)
inactive: bafetinib -0.303 | nilotinib 0.148 | [3] 0.126 | [4] -0.078 | mubritinib -0.002

SREBF2 (UniProt Q12772)
inactive: bafetinib -0.029 | nilotinib -0.011 | [3] -0.076 | [4] 0.027 | mubritinib -0.017
